The values that follow come from ChEMBL document CHEMBL4270539, “Fibrogenic Disorders in Human Diseases: From Inflammation to Organ Dysfunction” (J Med Chem, 2018).

This test deals with T1, Tyrosine-protein kinase JAK3 (Homo sapiens, UniProt P52333).
T1 sequence (P52333 whole entry): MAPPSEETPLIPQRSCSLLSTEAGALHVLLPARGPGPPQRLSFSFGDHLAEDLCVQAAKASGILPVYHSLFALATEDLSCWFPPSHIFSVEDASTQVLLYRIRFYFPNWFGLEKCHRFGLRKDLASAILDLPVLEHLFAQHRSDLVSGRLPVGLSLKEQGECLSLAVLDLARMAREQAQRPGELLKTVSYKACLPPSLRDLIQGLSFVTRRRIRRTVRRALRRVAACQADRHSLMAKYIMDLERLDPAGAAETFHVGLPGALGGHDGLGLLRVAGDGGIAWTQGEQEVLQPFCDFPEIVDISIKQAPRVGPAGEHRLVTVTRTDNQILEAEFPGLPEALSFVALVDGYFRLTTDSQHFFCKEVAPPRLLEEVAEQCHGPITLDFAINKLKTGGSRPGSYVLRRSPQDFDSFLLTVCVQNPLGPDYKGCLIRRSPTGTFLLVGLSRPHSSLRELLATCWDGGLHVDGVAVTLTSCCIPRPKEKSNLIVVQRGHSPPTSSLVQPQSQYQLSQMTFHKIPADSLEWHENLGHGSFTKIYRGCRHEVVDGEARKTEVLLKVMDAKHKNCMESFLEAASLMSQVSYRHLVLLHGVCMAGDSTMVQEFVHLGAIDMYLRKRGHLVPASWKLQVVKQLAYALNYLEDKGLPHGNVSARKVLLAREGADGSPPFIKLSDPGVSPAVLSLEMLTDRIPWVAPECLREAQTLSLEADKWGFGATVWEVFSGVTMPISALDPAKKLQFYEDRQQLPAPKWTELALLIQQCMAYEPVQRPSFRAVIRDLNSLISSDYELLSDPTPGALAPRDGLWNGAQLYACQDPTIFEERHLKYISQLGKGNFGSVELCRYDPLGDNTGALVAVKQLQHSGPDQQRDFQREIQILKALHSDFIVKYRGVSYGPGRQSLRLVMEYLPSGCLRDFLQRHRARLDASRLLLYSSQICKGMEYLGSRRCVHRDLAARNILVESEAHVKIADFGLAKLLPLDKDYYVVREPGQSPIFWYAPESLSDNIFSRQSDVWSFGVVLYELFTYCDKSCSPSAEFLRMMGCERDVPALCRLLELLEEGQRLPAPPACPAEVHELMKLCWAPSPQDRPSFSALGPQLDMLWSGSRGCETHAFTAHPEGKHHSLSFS

In the case of `COc1cc2ncnc(Nc3ccc(O)c(Br)c3)c2cc1OC`, the IC50 – broadly, the concentration that inhibits the measured activity by half – is 1.8 µM.
